This experiment concerns the target kinase domain of Somatic Embryogenesis Receptor-like Kinase 1 (SERK1-KD) (Arabidopsis thaliana) (UniProt Q94AG2). The experiment is described as follows: SEC; analytical gel filtration on Superdex 75 10/300 GL, last step of the purification; concentration not given; both purified. (In gel filtration, larger molecules generally elute earlier.)

No constants are given. Whether binding was seen depends on the method and setting.

B1: kinase domain of Somatic Embryogenesis Receptor-like Kinase 1 (SERK1-KD) (domain or fragment, UniProt Q94AG2 285-625)
chain: GQLKRFSLRELQVASDGFSNKNILGRGGFGKVYKGRLADGTLVAVKRLKEERTPGGELQFQTEVEMISMAVHRNLLRLRGFCMTPTERLLVYPYMANGSVASCLRERPPSQPPLDWPTRKRIALGSARGLSYLHDHCDPKIIHRDVKAANILLDEEFEAVVGDFGLAKLMDYKDTHVTTAVRGTIGHIAPEYLSTGKSSEKTDVFGYGIMLLELITGQRAFDLARLANDDDVMLLDWVKGLLKEKKLEMLVDPDLQTNYEERELEQVIQVALLCTQGSPMERPKMSEVVRMLEGDGLAEKWDEWQKVEILREEIDLSPNPNSDWILDSTYNLHAVELSGPR
For B1, the binding entry was “no binding”.

For the origin of these results see paper PMC3517577.
